One molecule from patent US20140371142A1 can be followed below.

These are yes or no findings as the source states them, for the method shown. Some results given as binding are weak or reduced against the parent protein; the word gives no strength. Sequences can lack the tags named with a protein.

The target in test [1] is T1, HA epitope-tagged CTRP12 (mouse) (UniProt Q8R2Z0).
T1 sequence: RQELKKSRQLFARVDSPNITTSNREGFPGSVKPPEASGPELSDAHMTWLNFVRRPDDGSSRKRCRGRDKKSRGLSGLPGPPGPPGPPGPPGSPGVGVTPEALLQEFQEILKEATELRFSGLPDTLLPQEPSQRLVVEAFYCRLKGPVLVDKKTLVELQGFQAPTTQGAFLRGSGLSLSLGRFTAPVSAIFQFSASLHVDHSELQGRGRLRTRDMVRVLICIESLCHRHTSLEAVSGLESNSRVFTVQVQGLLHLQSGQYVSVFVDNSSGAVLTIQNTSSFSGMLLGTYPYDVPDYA
Kind of test: co-expression in HEK 293T cells, immunoprecipitation then immunoblot of supernatants (FLAG / HA tags).

For test [2], the target named is T1, HA epitope-tagged CTRP12 (mouse). Briefly: immunoprecipitation then immunoblot, FIG. 4E legend. On the technique in general: Immunoblotting shows a protein as a band on a membrane.

B1: FLAG epitope-tagged mouse myonectin (CTRP15) (ligand)
chain: LGVPESAEPVGTHARPQPPGAELPAPPANSPPEPTIAHAHSVDPRDAWMLFVKQSDKGINSKRRSKARRLKLGLPGPPGPPGPQGPPGPFIPSEVLLKEFQLLLKGAVRQRESHLEHCTRDLTTPASGSPSRVPAAQELDSQDPGALLALLAATLAQGPRAPRVEAAFHCRLRRDVQVDRRALHELGIYYLPEVEGAFHRGPGLNLTSGQYTAPVAGFYALAATLHVALTEQPRKGPTRPRDRLRLLICIQSLCQHNASLETVMGLENSSELFTISVNGVLYLQAGHYTSVFLDNASGSSLTVRSGSHFSAILLGLDYKDDDDK
modifications: N-linked glycans (sites not given)
In the case of B1, the binding result in test [1] and in test [2] was “binds” throughout.
